Measurements published in PubChem BioAssay AID1671190 (National Center for Advancing Translational Sciences (NCATS), 2021).
Screen size: about 580,000 compounds; about 6,100 (1.1%) were called active. Inconclusive means that the source gave no clear call. Such entries were picked first, then a sample of the others. The call rests on the fitted dose curve; in most records, active means well fitted inhibition curve with a large enough effect; inconclusive means small, poorly fitted or top-dose-only effect, or another doubt; inactive means no such curve, though single readings can be large or run the other way. Where the call is inconclusive, the potency comes from a doubtful curve fit.

The chains behind the UniProt entries cited, without tags or fusion partners. Where a name states a change or a piece, a line headed by the entry shows the natural chain unless it says otherwise.
UniProt P18054: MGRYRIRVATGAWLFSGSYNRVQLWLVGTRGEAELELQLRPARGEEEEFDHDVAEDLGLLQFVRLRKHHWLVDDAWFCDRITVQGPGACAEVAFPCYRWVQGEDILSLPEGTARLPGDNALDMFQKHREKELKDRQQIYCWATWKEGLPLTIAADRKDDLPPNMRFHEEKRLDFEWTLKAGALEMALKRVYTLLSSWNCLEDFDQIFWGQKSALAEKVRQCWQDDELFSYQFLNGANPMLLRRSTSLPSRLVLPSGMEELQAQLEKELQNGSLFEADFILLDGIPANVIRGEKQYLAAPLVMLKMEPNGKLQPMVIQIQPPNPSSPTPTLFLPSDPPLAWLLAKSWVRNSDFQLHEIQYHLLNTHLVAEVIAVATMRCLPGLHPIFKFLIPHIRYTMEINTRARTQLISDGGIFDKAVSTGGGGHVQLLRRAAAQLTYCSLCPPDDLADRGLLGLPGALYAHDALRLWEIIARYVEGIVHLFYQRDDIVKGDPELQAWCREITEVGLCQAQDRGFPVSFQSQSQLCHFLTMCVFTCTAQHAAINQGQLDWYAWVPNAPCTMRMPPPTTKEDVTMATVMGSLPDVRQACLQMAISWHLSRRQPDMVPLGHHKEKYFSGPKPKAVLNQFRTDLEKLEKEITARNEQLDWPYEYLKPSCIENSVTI

Target: Polyunsaturated fatty acid lipoxygenase ALOX12 (Homo sapiens) (UniProt P18054)
Experiment: Primary qHTS assay for inhibitors of human arachidonate 12S-lipoxygenase (ALOX12): Round 2
Details: purified 12hLO, xylenol orange hydroperoxide absorbance; activity change, negative = inhibition: at 108 µM (top of the series) unless noted
In short: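 Purified human 12hLO at 150 nM in 25 mM Hepes, 0.01% Triton X-100, pH 7.0, preincubated 15 min at room temperature with compound. Reaction started with 40 uM arachidonic acid, 30 min at room temperature. Hydroperoxide measured by Fe-xylenol orange, 573/405 nm absorbance ratio.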
On the % scale 0 is the no-effect control and ±100 the full control effect; potency means the concentration at half of the fitted maximal effect.

With `Cc1noc(-c2nnn3c2COC(c2ccc(F)cc2)C3)n1` (centres undefined) as the compound, how does the “activity change, negative = inhibition” value read?
The value was inactive: 26.7%.

`CCCC(=O)Nc1cc(Cl)ccc1N1CCN(C(=O)CC)CC1` was tested. Which “activity change, negative = inhibition” value did it give?
The value was inactive: 7.81%.

`CC(CCc1ccco1)NC(=O)c1ccc(S(C)(=O)=O)cc1` (centres undefined) was tested. Which “activity change, negative = inhibition” value did it give?
The value was inactive: -25.9%.

How did the Potency turn out when `O=C(O)C[C@@H]1CCN(Cc2ccccc2)C[C@@H]1CCN1C[C@@H]2C[C@H](C1)c1cccc(=O)n1C2` was run?
The Potency was inconclusive: 35.5 µM [inhibitor, partial curve].

How did the “activity change, negative = inhibition” value turn out when `O=C(CCC[C@@H]1[C@H]2CCCN3CCC[C@@H](CN1C(=O)Nc1ccccc1)[C@@H]23)Nc1ccccc1` was run?
The value was inactive: -4.93%.

`COc1ccc(S(=O)(=O)N[C@@H]2C=C[C@@H](CC(=O)N3CCc4ccccc4C3)O[C@@H]2CO)cc1` was tested. Which Potency did it give?
Its Potency is active: 25.1 µM.

Which “activity change, negative = inhibition” value does the source give for `S=C(NCCc1ccccc1)Nc1cnc2ccccc2c1` here?
Its value is inactive: -26.3%.

With `O=C(O)c1ccc(-c2ccc(Cl)cc2)s1` as the compound, how does the Potency read?
Its Potency is inconclusive: 112 µM [inhibitor, single point].

Which Potency does the source give for `Cc1ccc(Cl)cc1-n1ncc2c(NC3CCCCCC3)ncnc21` here?
The Potency was inconclusive: 100 µM [inhibitor, partial curve, poor fit].

`COc1ccc(NC(=S)NC(=O)CC(C)C)c(OC)c1` was tested. Which Potency did it give?
The Potency was inconclusive: 50.1 µM [inhibitor, partial curve, poor fit].

Which Potency does the source give for `O=C(COC(=O)c1oc2ccccc2c1COc1ccccc1)NCCN1C(=O)CSC1=O` here?
Its Potency is inconclusive: 112 µM [inhibitor, partial curve, poor fit].

With `Cc1ccc(C(=O)N2CCN(c3ncnc4c3cnn4-c3ccccc3)CC2)cc1` as the compound, how does the “activity change, negative = inhibition” value read?
Its value is inactive: 0%.

For `CC1=NOC(=O)/C1=C/c1ccc(O)c(Cl)c1`, which Potency is on record?
The Potency was inconclusive: 3.16 µM [inhibitor, full curve, poor fit].

With `S=c1[nH]nc(-c2ccco2)n1/N=C/c1ccccc1Cl` as the compound, how does the Potency read?
Its Potency is inconclusive: 50.1 µM [inhibitor, partial curve, poor fit].

How did the Potency turn out when `O=C1N(Cc2cccc(Cl)c2)C[C@@H]2C[C@@H](c3c[nH]c4ccccc34)N3CCC[C@@]123` was run?
The Potency was inconclusive: 39.8 µM [inhibitor, partial curve, poor fit].

With `S=C(NCCc1ccc(Cl)cc1)Nc1ccc(Cl)cc1Cl` as the compound, how does the Potency read?
The Potency was active: 31.6 µM.

How did the Potency turn out when `Cc1ccccc1COc1cccn2c(N(C)C(=O)CCC3CCCC3)c(C)nc12` was run?
The Potency was inconclusive: 44.7 µM [inhibitor, partial curve].

Which Potency does the source give for `Cc1ccc(CN2C(=O)C3(c4ccccc42)N(c2ccc(F)c(Cl)c2)C(=O)CS3(=O)=O)cc1` (centres undefined) here?
The Potency was inconclusive: 112 µM [inhibitor, single point].

`Cc1ccc(Nc2c(-c3c[nH]c4ccccc34)nc3cc(C)ccn23)cc1` was tested. Which Potency did it give?
Its Potency is inconclusive: 3.16 µM [inhibitor, full curve, poor fit].
